Structures can show the parent of a compound that is named as a salt. The list shows a part of the results. Hit calls seldom repeat between salt and free forms of one compound.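 Kinases were expressed as nanoluciferase fusions in K562 cells and luminescence was read every 4 h between 2 and 18 h as percent of control, DMSO set to 100% and a positive control to 0%. A time point counts as decreased when the signal drops significantly (2 sigma). The hit call is the authors' own, does not follow from the count of time points alone, and its rule is not shown.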
Molecular target: PDPK1 (UniProt O15530)
Assay: kinase-Nluc reporter destabilization hit call (1 = scored as downregulated) (binary); higher = compound decreases kinase abundance
Settings: K562; 2-18 h

Chains of the proteins cited; added tags and fusions are not shown. Lines headed by an entry give the natural chain unless they say otherwise; changes in a name come on top.
UniProt O15530: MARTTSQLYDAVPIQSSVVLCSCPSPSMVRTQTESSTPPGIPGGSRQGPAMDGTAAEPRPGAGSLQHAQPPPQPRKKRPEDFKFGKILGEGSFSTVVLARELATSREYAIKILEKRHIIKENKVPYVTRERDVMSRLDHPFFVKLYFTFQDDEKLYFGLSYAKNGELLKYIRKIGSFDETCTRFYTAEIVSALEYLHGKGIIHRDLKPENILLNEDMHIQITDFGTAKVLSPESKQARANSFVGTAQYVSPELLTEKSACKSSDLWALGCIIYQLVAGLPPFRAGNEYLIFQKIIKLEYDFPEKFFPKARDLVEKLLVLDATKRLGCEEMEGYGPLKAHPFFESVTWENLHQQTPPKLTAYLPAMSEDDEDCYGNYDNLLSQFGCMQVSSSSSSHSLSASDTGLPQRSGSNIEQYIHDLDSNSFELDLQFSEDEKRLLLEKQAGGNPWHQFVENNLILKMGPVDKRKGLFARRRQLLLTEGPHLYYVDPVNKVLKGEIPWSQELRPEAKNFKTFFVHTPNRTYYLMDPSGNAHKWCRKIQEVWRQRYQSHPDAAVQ

kinase-Nluc reporter destabilization hit call, inactive:
O=C(CSC1=NCCN1)NC1CCCCCC1 [ICCB-19 (hydrochloride)] (2.5 µM) 0
CCCS(=O)(=O)Nc1ccc(F)c(C(=O)c2c[nH]c3ncc(-c4ccc(Cl)cc4)cc23)c1F [Vemurafenib] (10 µM) 0
Cc1ccc(OCCSc2ncccn2)c(Br)c1 [ZLN024 (hydrochloride)] (10 µM) 0
Nc1ncnc2c1c(-c1ccc(Oc3ccccc3)cc1)nn2C1CCCC1 (2.5 µM) 0
COc1ncc(Cl)cc1S(=O)(=O)Nc1ccc(F)c(C#Cc2cnc(N)nc2)c1F (2.5 µM) 0
Cc1ccc(CNc2ncnc3ccc(-c4ccc(CO)o4)cc23)o1 (10 µM) 0
NC(=O)c1nnc(N[C@@H]2CCCC[C@@H]2N)nc1Nc1cccc2cc[nH]c12 (10 µM) 0
CNc1nc(Nc2ccc(C(=O)N3CCOCC3)cc2OC)nc2[nH]cc(Cl)c12 (2.5 µM) 0
CCNc1nc(Nc2cc(F)c(C(=O)N3CCOCC3)cc2OC)ncc1C(F)(F)F [GNE-7915 (tosylate)] (10 µM) 0
CCN1CCN(Cc2ccc(Nc3ncc(F)c(-c4cc(F)c5nc(C)n(C(C)C)c5c4)n3)nc2)CC1 [Abemaciclib] (2 µM) 0
COCCNc1nc2ccc(C#CC3(O)CCCCC3)cc2n1-c1ccnc(N)n1 (10 µM) 0
OCCn1cc(-c2ccc3c(c2)CC/C3=N\O)c(-c2ccncc2)n1 (10 µM) 0

Part of the list above in order of heavy-atom count, low to high:
kinase-Nluc reporter destabilization hit call, inactive:
O=C(CSC1=NCCN1)NC1CCCCCC1 [ICCB-19 (hydrochloride)] (2.5 µM) 0
Cc1ccc(OCCSc2ncccn2)c(Br)c1 [ZLN024 (hydrochloride)] (10 µM) 0
CCNc1nc(Nc2cc(F)c(C(=O)N3CCOCC3)cc2OC)ncc1C(F)(F)F [GNE-7915 (tosylate)] (10 µM) 0

— the supplement of paper PMC12823440, “Inhibitors supercharge kinase turnover through native proteolytic circuits” (Nature, 2025)
